Taken from: PubChem BioAssay AID1508597 (Cure First, 2020)

Screen: 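Genes whose silencing sensitises or protects ovarian cancer cells against rucaparib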 (primary screen)
System: human ovarian carcinoma lines grown from tumours: OCI-P5x (papillary serous) and OCI-C5x (clear cell)
Reagents: siRNA pool against human genes, 1.25 pmol siRNA per well
Time to read-out: 72 h or 96 h, depending on the cell culture
Challenge: rucaparib 20 µM (about IC30) or vehicle, present until read-out
Rucaparib or vehicle: Vehicle
Cell line: OCI-C5x (clear cell)
Read-out: 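Luminescent ATP-based viability assay read 72 or 96 h after transfection, depending on culture, given as normalised percent viability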
Direction: viability, normalised: higher = more viable cells remaining
Rule for the call: 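a well counts as a hit if its normalised viability is under 80 percent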
Meaning of the calls: active = viability under 80%; inactive = viability 80% or more
This is an unselected part of the about 2,100 reagents, under one of the conditions tested. 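Calls flag viability under 80% in either arm, not effects specific to rucaparib; the reference for percent is not stated.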 A reagent listed more than once was tested more than once; the source does not tell the runs apart. The record does not give: the 100% reference.

Gene,technical replicate,"viability, normalised (%)",call
PAPSS2 (3'-phosphoadenosine 5'-phosphosulfate synthase 2),1,65.1,active
PAPSS2 (3'-phosphoadenosine 5'-phosphosulfate synthase 2),2,49.3,active
PAPSS2 (3'-phosphoadenosine 5'-phosphosulfate synthase 2),3,57,active
PIK3CB,1,120,inactive
PIK3CB,2,52.2,active
PIK3CB,3,55.3,active
DDX59 (DEAD-box helicase 59),1,40.6,active
DDX59 (DEAD-box helicase 59),2,40.8,active
DDX59 (DEAD-box helicase 59),3,46.5,active
NKX2-3 (NK2 homeobox 3),1,37.9,active
NKX2-3 (NK2 homeobox 3),2,35.4,active
NKX2-3 (NK2 homeobox 3),3,50.2,active
BCL2L1 (BCL2 like 1),1,12.4,active
BCL2L1 (BCL2 like 1),1,33.4,active
BCL2L1 (BCL2 like 1),2,34.1,active
BCL2L1 (BCL2 like 1),2,16.7,active
BCL2L1 (BCL2 like 1),3,21.8,active
BCL2L1 (BCL2 like 1),3,31.6,active
ELAC1 (elaC ribonuclease Z 1),1,55.1,active
ELAC1 (elaC ribonuclease Z 1),2,46.8,active
ELAC1 (elaC ribonuclease Z 1),3,44,active
HDAC4 (histone deacetylase 4),1,49.5,active
HDAC4 (histone deacetylase 4),2,64.7,active
HDAC4 (histone deacetylase 4),3,82.1,inactive
CDK5 (cyclin dependent kinase 5),1,58.7,active
CDK5 (cyclin dependent kinase 5),2,43.4,active
CDK5 (cyclin dependent kinase 5),3,42.9,active
MED16 (mediator complex subunit 16),1,46,active
MED16 (mediator complex subunit 16),2,42.1,active
MED16 (mediator complex subunit 16),3,47.4,active
CCNK (cyclin K),1,58.1,active
CCNK (cyclin K),2,57.5,active
CCNK (cyclin K),3,39.7,active

Continued; the last 6 above are carried over.
Gene,technical replicate,"viability, normalised (%)",call
MED16 (mediator complex subunit 16),1,46,active
MED16 (mediator complex subunit 16),2,42.1,active
MED16 (mediator complex subunit 16),3,47.4,active
CCNK (cyclin K),1,58.1,active
CCNK (cyclin K),2,57.5,active
CCNK (cyclin K),3,39.7,active
TXNDC9 (thioredoxin domain containing 9),1,42.7,active
TXNDC9 (thioredoxin domain containing 9),2,67,active
TXNDC9 (thioredoxin domain containing 9),3,58.3,active
THOC1 (THO complex subunit 1),1,43.9,active
THOC1 (THO complex subunit 1),2,68,active
THOC1 (THO complex subunit 1),3,56.8,active
"ARAF (A-Raf proto-oncogene, serine/threonine kinase)",1,55.5,active
"ARAF (A-Raf proto-oncogene, serine/threonine kinase)",2,62.3,active
"ARAF (A-Raf proto-oncogene, serine/threonine kinase)",3,56.2,active
NOTCH1 (notch receptor 1),1,43.5,active
NOTCH1 (notch receptor 1),2,39.5,active
NOTCH1 (notch receptor 1),3,57.1,active
"POLE (DNA polymerase epsilon, catalytic subunit)",1,47.3,active
"POLE (DNA polymerase epsilon, catalytic subunit)",2,42.2,active
"POLE (DNA polymerase epsilon, catalytic subunit)",3,44.5,active
POU5F1 (POU class 5 homeobox 1),1,38.8,active
POU5F1 (POU class 5 homeobox 1),2,30.7,active
POU5F1 (POU class 5 homeobox 1),3,41.4,active
MAPK1 (mitogen-activated protein kinase 1),1,38,active
MAPK1 (mitogen-activated protein kinase 1),2,60,active
MAPK1 (mitogen-activated protein kinase 1),3,53.8,active
CHM (CHM Rab escort protein),1,31.4,active
CHM (CHM Rab escort protein),2,48.4,active
CHM (CHM Rab escort protein),3,26.7,active
